Differences between knockout arms are mostly noise.
System: SKBR3
Test: relative cell number vs DMSO control (72 h) (% of DMSO); higher = less growth inhibition (more cells)
Method: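 QMAP-Seq: a pool of 5 breast cancer cell lines (ZR-75-1, SKBR3, HCC-38, MDA-MB-231, BT-20), each carrying 12 doxycycline-inducible Cas9 sgRNA perturbations (11 knockouts plus non-targeting sgNT), was treated with compounds for 72 h at four 10-fold doses (10 nM-10 uM or 1 nM-1 uM range). Barcodes were amplified and sequenced, and cell number was interpolated from 293T spike-in standard curves. The result is expressed as % of the median of DMSO wells. Two biological replicates.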

N.N.[Cl][Pt][Cl] [Cisplatin]
Conditions | relative cell number
sgRNA knockout: sgATF3, 10 nM | 109
sgRNA knockout: sgATF3, 100 nM | 92.2
sgRNA knockout: sgATF3, 1000 nM | 105
sgRNA knockout: sgATF3, 10000 nM | 114
sgRNA knockout: sgATF4, 10 nM | 97.2
sgRNA knockout: sgATF4, 100 nM | 82.8
sgRNA knockout: sgATF4, 1000 nM | 97.3
sgRNA knockout: sgATF4, 10000 nM | 93
sgRNA knockout: sgATF6, 10 nM | 83.11
sgRNA knockout: sgATF6, 100 nM | 89.5
sgRNA knockout: sgATF6, 1000 nM | 90.8
sgRNA knockout: sgATF6, 10000 nM | 91
sgRNA knockout: sgATG7, 10 nM | 102
sgRNA knockout: sgATG7, 100 nM | 112
sgRNA knockout: sgATG7, 1000 nM | 95.6
sgRNA knockout: sgATG7, 10000 nM | 117
sgRNA knockout: sgERN1, 10 nM | 98.9
sgRNA knockout: sgERN1, 100 nM | 97.6
sgRNA knockout: sgERN1, 1000 nM | 107
sgRNA knockout: sgERN1, 10000 nM | 104
sgRNA knockout: sgHSF1, 10 nM | 95.5
sgRNA knockout: sgHSF1, 100 nM | 96.6
sgRNA knockout: sgHSF1, 1000 nM | 93.6
sgRNA knockout: sgHSF1, 10000 nM | 92.6
sgRNA knockout: sgHSF2, 10 nM | 107
sgRNA knockout: sgHSF2, 100 nM | 76.4
sgRNA knockout: sgHSF2, 1000 nM | 97.8
sgRNA knockout: sgHSF2, 10000 nM | 110
sgRNA knockout: sgKEAP1, 10 nM | 109
sgRNA knockout: sgKEAP1, 100 nM | 76.6
sgRNA knockout: sgKEAP1, 1000 nM | 92
sgRNA knockout: sgKEAP1, 10000 nM | 87.4
sgRNA knockout: sgNFE2L2, 10 nM | 119
sgRNA knockout: sgNFE2L2, 100 nM | 69.3
sgRNA knockout: sgNFE2L2, 1000 nM | 112
sgRNA knockout: sgNFE2L2, 10000 nM | 98.1
sgRNA knockout: sgSLC35F2, 10 nM | 111
sgRNA knockout: sgSLC35F2, 100 nM | 85.4
sgRNA knockout: sgSLC35F2, 1000 nM | 123.83
sgRNA knockout: sgSLC35F2, 10000 nM | 110
sgRNA knockout: sgXBP1, 10 nM | 112
sgRNA knockout: sgXBP1, 100 nM | 94.8
sgRNA knockout: sgXBP1, 1000 nM | 123
sgRNA knockout: sgXBP1, 10000 nM | 104

C[C@@H](Oc1cc(-c2cnn(C3CCNCC3)c2)cnc1N)c1c(Cl)ccc(F)c1Cl [Crizotinib]
Conditions | relative cell number
sgRNA knockout: sgATF3, 10 nM | 76.9
sgRNA knockout: sgATF3, 100 nM | 84.8
sgRNA knockout: sgATF3, 1000 nM | 80.2
sgRNA knockout: sgATF3, 10000 nM | 27.4
sgRNA knockout: sgATF4, 10 nM | 96.7
sgRNA knockout: sgATF4, 100 nM | 82.8
sgRNA knockout: sgATF4, 1000 nM | 80.51
sgRNA knockout: sgATF4, 10000 nM | 25.9
sgRNA knockout: sgATF6, 10 nM | 82
sgRNA knockout: sgATF6, 100 nM | 88.2
sgRNA knockout: sgATF6, 1000 nM | 67.8
sgRNA knockout: sgATF6, 10000 nM | 29.2
sgRNA knockout: sgATG7, 10 nM | 103
sgRNA knockout: sgATG7, 100 nM | 71.2
sgRNA knockout: sgATG7, 1000 nM | 70.2
sgRNA knockout: sgATG7, 10000 nM | 31.5
sgRNA knockout: sgERN1, 10 nM | 94.3
sgRNA knockout: sgERN1, 100 nM | 106
sgRNA knockout: sgERN1, 1000 nM | 85.9
sgRNA knockout: sgERN1, 10000 nM | 24.1
sgRNA knockout: sgHSF1, 10 nM | 91.8
sgRNA knockout: sgHSF1, 100 nM | 88.5
sgRNA knockout: sgHSF1, 1000 nM | 57.3
sgRNA knockout: sgHSF1, 10000 nM | 29.7
sgRNA knockout: sgHSF2, 10 nM | 107
sgRNA knockout: sgHSF2, 100 nM | 90.6
sgRNA knockout: sgHSF2, 1000 nM | 62.9
sgRNA knockout: sgHSF2, 10000 nM | 26.3
sgRNA knockout: sgKEAP1, 10 nM | 79.6
sgRNA knockout: sgKEAP1, 100 nM | 83
sgRNA knockout: sgKEAP1, 1000 nM | 69.3
sgRNA knockout: sgKEAP1, 10000 nM | 29.2
sgRNA knockout: sgNFE2L2, 10 nM | 78.8
sgRNA knockout: sgNFE2L2, 100 nM | 81.8
sgRNA knockout: sgNFE2L2, 1000 nM | 73.4
sgRNA knockout: sgNFE2L2, 10000 nM | 24.1
sgRNA knockout: sgSLC35F2, 10 nM | 92.7
sgRNA knockout: sgSLC35F2, 100 nM | 105
sgRNA knockout: sgSLC35F2, 1000 nM | 75.3
sgRNA knockout: sgSLC35F2, 10000 nM | 26.1
sgRNA knockout: sgXBP1, 10 nM | 107
sgRNA knockout: sgXBP1, 100 nM | 102
sgRNA knockout: sgXBP1, 1000 nM | 74.2
sgRNA knockout: sgXBP1, 10000 nM | 33.1

CN(C)/N=N/c1[nH]cnc1C(N)=O [Dacarbazine]
Conditions | relative cell number
sgRNA knockout: sgATF3, 10 nM | 88.9
sgRNA knockout: sgATF3, 100 nM | 92.2
sgRNA knockout: sgATF3, 1000 nM | 105
sgRNA knockout: sgATF3, 10000 nM | 93.5
sgRNA knockout: sgATF4, 10 nM | 130
sgRNA knockout: sgATF4, 100 nM | 102
sgRNA knockout: sgATF4, 1000 nM | 99.8
sgRNA knockout: sgATF4, 10000 nM | 101
sgRNA knockout: sgATF6, 10 nM | 98.2
sgRNA knockout: sgATF6, 100 nM | 95.4
sgRNA knockout: sgATF6, 1000 nM | 98.5
sgRNA knockout: sgATF6, 10000 nM | 115
sgRNA knockout: sgATG7, 10 nM | 103
sgRNA knockout: sgATG7, 100 nM | 111.8
sgRNA knockout: sgATG7, 1000 nM | 100
sgRNA knockout: sgATG7, 10000 nM | 110
sgRNA knockout: sgERN1, 10 nM | 120
sgRNA knockout: sgERN1, 100 nM | 103
sgRNA knockout: sgERN1, 1000 nM | 113
sgRNA knockout: sgERN1, 10000 nM | 95.6
sgRNA knockout: sgHSF1, 10 nM | 99
sgRNA knockout: sgHSF1, 100 nM | 88.4
sgRNA knockout: sgHSF1, 1000 nM | 86.5
sgRNA knockout: sgHSF1, 10000 nM | 114
sgRNA knockout: sgHSF2, 10 nM | 106.3
sgRNA knockout: sgHSF2, 100 nM | 82.1
sgRNA knockout: sgHSF2, 1000 nM | 98.5
sgRNA knockout: sgHSF2, 10000 nM | 93.5
sgRNA knockout: sgKEAP1, 10 nM | 107
sgRNA knockout: sgKEAP1, 100 nM | 77.8
sgRNA knockout: sgKEAP1, 1000 nM | 89.5
sgRNA knockout: sgKEAP1, 10000 nM | 92.3
sgRNA knockout: sgNFE2L2, 10 nM | 98.2
sgRNA knockout: sgNFE2L2, 100 nM | 71.2
sgRNA knockout: sgNFE2L2, 1000 nM | 111
sgRNA knockout: sgNFE2L2, 10000 nM | 98.2
sgRNA knockout: sgSLC35F2, 10 nM | 81.7
sgRNA knockout: sgSLC35F2, 100 nM | 86.9
sgRNA knockout: sgSLC35F2, 1000 nM | 105
sgRNA knockout: sgSLC35F2, 10000 nM | 96.9
sgRNA knockout: sgXBP1, 10 nM | 80.3
sgRNA knockout: sgXBP1, 100 nM | 99.6
sgRNA knockout: sgXBP1, 1000 nM | 106
sgRNA knockout: sgXBP1, 10000 nM | 113

From the supplement of paper PMC7661543
